# PubChem BioAssay AID1259291 | Sanger Institute | 2017
# Test: 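Search for gene knock-downs that act synergistically alongside anchor drugs to kill cells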 (primary screen)
# System: HT29 human colorectal cancer cells
# Reagent: siRNA pool against human genes
# Conditions: anchor drugs added a day after transfection: BYL719 at 1 µM, cetuximab at 5 µg/ml or trametinib at 10 nM, or DMSO vehicle alone
# Measured: 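Replicate-averaged viability relative to non-targeting pool, robust z-score based on control wells, plus per-drug synergy score for 1 µM BYL719, 5 µg/ml cetuximab and 10 nM trametinib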
# Scale: robust z-score, knock-down alone and viability, knock-down alone: higher = more viable cells; synergy score with BYL719 and synergy score with cetuximab and synergy score with trametinib: higher = stronger synergistic killing with drug
# Hit rule: 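Essential when the robust z-score for knock-down without any drug is below -3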
# Calls: active = essential (knock-down alone); inactive = no change alone
# In all, the deposit lists 794 reagents; below is a part drawn at random. In the full data, 15 (1.9%) got an active call. 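Calls rest on knock-down alone; drug synergy scores do not affect them; drugs added a day post-transfection, DMSO vehicle as comparison.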 Unmarked entries are inactive. Viability is capped at 1. Reagent sequences are not shown. The record does not give: the amount of reagent, the time to read-out.
Target gene,"robust z-score, knock-down alone","viability, knock-down alone (fraction of control)",synergy score with BYL719,synergy score with cetuximab,synergy score with trametinib
MAP3K12 (mitogen-activated protein kinase kinase kinase 12),0.478,0.995,0.117,0.016,0.11
ATRX (ATRX chromatin remodeler),0.000174,0.966,-0.186,-0.0343,-0.102
RAD21 (RAD21 cohesin complex component),-0.258,0.95,0.0541,0.127,-0.0906
HUNK (hormonally up-regulated Neu-associated kinase),-1.12,0.896,0.00895,-0.00288,0.186
SPHK2 (sphingosine kinase 2),0.552,1,0.00289,0,-0.156
CRIM1 (cysteine rich transmembrane BMP regulator 1),0.552,1,0.0357,0,0.127
TWF2 (twinfilin actin binding protein 2),0.552,1,-0.0302,0.0336,0.0344
NUP107 (nucleoporin 107),-5.18 (active),0.645,-0.0398,0.155,-0.00675
PSKH1 (protein serine kinase H1),0.552,1,-0.124,0,-0.0573
CSNK2A2 (casein kinase 2 alpha 2),0.552,1,0.0868,0.0552,-0.232
MAP2K7 (mitogen-activated protein kinase kinase 7),-3.63 (active),0.741,-0.0759,-0.0588,-0.0426
DDR2 (discoidin domain receptor tyrosine kinase 2),0.218,0.979,0.0298,0.0921,-0.037
CSNK1G1 (casein kinase 1 gamma 1),0.552,1,-0.108,0.109,0.00344
TRIB2 (tribbles pseudokinase 2),-1.9,0.848,-0.036,-0.108,0.14
SPHK1 (sphingosine kinase 1),-0.735,0.92,-0.056,-0.0799,0.109
NRBP2 (nuclear receptor binding protein 2),-1.65,0.864,0.0404,0.0963,0.0536
PNCK (pregnancy up-regulated nonubiquitous CaM kinase),0.552,1,-0.124,0.0278,0.0908

As entered above:
Result of SPHK1 (sphingosine kinase 1) in “synergy score with trametinib”: 0.109
Under “synergy score with BYL719”, RAD21 (RAD21 cohesin complex component) reads 0.0541
Entry for PNCK (pregnancy up-regulated nonubiquitous CaM kinase) in “viability, knock-down alone (fraction of control)”: 1
Value for ATRX (ATRX chromatin remodeler) in “synergy score with BYL719”: -0.186
For “synergy score with BYL719”, CSNK1G1 (casein kinase 1 gamma 1) has -0.108

Continued.
Target gene,"robust z-score, knock-down alone","viability, knock-down alone (fraction of control)",synergy score with BYL719,synergy score with cetuximab,synergy score with trametinib
VRK3 (VRK serine/threonine kinase 3),-0.0244,0.964,-0.087,-0.0358,-0.0842
RPS6KC1 (ribosomal protein S6 kinase C1),0.552,1,-0.0858,0.027,0.144
NME2 (NME/NM23 nucleoside diphosphate kinase 2),0.552,1,-0.00189,0.0125,0.0335
MAGI1,-1.6,0.866,-0.125,-0.0791,-0.152
SGK3 (serum/glucocorticoid regulated kinase family member 3),-0.357,0.944,-0.148,-0.0231,0.0584
"PFKFB4 (6-phosphofructo-2-kinase/fructose-2,6-biphosphatase 4)",0.552,1,0.0893,0.062,0.106
UCK1 (uridine-cytidine kinase 1),0.552,1,-0.0718,0,0.0278
DGKQ (diacylglycerol kinase theta),0.105,0.972,-0.0434,0.116,0.0398
SMAD4 (SMAD family member 4),0.552,1,0.0628,0.0927,0.0272
TRIB1 (tribbles pseudokinase 1),-0.732,0.92,-0.104,-0.0797,0.108
ZAP70 (zeta chain of T cell receptor associated protein kinase 70),-1.1,0.897,-0.138,-0.0135,0.0497
CAMKV (CaM kinase like vesicle associated),0.552,1,0.0671,0.124,0.107
PAK1 (p21 (RAC1) activated kinase 1),-0.0921,0.96,-0.0831,-0.0161,-0.0316
PHKB (phosphorylase kinase regulatory subunit beta),0.31,0.985,0.037,-0.0151,-0.0976
GALK2 (galactokinase 2),-0.381,0.942,-0.0346,-0.0579,0.0833
TAOK3 (TAO kinase 3),0.552,1,0.129,0.113,0.0411
CHD9 (chromodomain helicase DNA binding protein 9),-1.37,0.881,0.0209,-0.0473,0.0804
CALM2 (calmodulin 2),0.552,1,0.0675,0.0193,0.133
IRAK1 (interleukin 1 receptor associated kinase 1),0.552,1,0.067,0.0132,0.245
MAP3K11 (mitogen-activated protein kinase kinase kinase 11),-0.211,0.953,-0.0262,-0.0474,0.0175
FCSK (fucose kinase),0.158,0.976,-0.0271,0.0323,-0.00806
NEK7 (NIMA related kinase 7),0.548,1,-0.0711,0.0239,-0.0408
CDK5R2 (cyclin dependent kinase 5 regulatory subunit 2),-0.646,0.926,-0.106,-0.0214,-0.0857
"PFKM (phosphofructokinase, muscle)",0.552,1,0.0165,0.0144,0.0553
MOK (MOK protein kinase),-0.509,0.934,-0.0678,-0.0659,-0.0214
PTK2 (protein tyrosine kinase 2),0.552,1,-0.0496,0.0811,0.0737
PRKAR2B,-1.67,0.862,-0.0698,-0.0939,0.0723
DYRK1A,0.552,1,0.0314,0.0237,0.0108
BMPR1A (bone morphogenetic protein receptor type 1A),-1.03,0.902,-0.149,-0.0983,-0.0667
NUAK1 (NUAK family kinase 1),0.552,1,0.209,0.172,0.00838
MELK (maternal embryonic leucine zipper kinase),0.552,1,-0.0537,0.0331,-0.00895
"YES1 (YES proto-oncogene 1, Src family tyrosine kinase)",0.552,1,0.171,0,0.0252
NRBP1 (nuclear receptor binding protein 1),-1.26,0.888,-0.0179,-0.112,0.0296
